Holding throughout (settings): stereoisomer not certain
Experiment [1] concerns T1, O10J3.
T1 sequence (whole entry): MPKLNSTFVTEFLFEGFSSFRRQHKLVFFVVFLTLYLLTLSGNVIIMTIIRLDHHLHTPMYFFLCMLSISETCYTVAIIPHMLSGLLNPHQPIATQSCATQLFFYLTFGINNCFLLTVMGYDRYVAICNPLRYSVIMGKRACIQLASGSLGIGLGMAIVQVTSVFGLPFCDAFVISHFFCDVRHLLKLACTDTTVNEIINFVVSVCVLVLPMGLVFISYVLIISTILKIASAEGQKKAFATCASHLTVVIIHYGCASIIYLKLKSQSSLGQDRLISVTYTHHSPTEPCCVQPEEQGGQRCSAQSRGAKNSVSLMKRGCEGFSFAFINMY
Summed up:
(§1)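 Each entry records the cell line, G-protein, co-transfected protein and tags used. Methods varied with the source, often transient luciferase assays in mammalian cell lines. A receptor–molecule pair is called responsive (active) if the original authors judged its signal statistically different from baseline and non-responsive (inactive) otherwise.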

Chains of the proteins cited; added tags and fusions are not shown. Chains listed by the source or under a name are the forms on record and can include a tag or linker.
O11H2, as listed by the source: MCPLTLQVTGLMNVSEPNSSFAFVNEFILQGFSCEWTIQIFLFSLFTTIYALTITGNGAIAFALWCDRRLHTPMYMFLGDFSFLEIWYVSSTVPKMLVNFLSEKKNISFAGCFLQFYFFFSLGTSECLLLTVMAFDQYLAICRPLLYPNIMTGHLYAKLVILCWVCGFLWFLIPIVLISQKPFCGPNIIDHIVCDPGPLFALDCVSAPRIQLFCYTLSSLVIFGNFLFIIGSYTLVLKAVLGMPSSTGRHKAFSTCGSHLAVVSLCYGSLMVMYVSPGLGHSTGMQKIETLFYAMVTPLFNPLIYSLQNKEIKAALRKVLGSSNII

Experiment [2] relates to T2, O10J5.
T2 sequence (whole entry): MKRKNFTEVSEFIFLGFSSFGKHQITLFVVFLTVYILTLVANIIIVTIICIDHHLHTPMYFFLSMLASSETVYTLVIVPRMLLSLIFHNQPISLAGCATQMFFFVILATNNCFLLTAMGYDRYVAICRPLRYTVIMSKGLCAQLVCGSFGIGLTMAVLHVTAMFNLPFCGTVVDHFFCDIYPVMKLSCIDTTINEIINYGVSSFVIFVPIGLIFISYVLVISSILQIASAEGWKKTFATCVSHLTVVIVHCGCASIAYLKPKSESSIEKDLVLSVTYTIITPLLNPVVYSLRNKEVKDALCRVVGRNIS
Summed up: as §1

Experiment [3] concerns T3, O10P1.
T3 sequence (whole entry): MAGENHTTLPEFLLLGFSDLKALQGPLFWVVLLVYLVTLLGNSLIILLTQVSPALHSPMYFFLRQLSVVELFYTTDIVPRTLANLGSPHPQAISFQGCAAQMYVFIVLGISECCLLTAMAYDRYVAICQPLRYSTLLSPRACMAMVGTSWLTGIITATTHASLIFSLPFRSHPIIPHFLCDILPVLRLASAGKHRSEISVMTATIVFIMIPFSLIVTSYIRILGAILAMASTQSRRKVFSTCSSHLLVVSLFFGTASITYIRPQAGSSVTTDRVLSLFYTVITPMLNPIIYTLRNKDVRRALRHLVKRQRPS
The gist of the method: as §1

Experiment [4] deals with T4, O10Q1.
T4 sequence (whole entry): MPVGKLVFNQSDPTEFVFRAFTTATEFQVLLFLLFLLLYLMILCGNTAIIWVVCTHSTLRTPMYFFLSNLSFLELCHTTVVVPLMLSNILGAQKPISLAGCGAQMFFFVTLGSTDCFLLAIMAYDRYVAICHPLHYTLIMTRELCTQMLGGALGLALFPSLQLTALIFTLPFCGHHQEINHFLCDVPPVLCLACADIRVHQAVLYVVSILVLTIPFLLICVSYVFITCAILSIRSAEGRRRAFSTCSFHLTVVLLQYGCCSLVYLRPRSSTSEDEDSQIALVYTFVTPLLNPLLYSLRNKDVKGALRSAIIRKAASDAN
Summed up: as §1

The test system of experiment [5] is T5, O10R2.
T5 sequence (whole entry): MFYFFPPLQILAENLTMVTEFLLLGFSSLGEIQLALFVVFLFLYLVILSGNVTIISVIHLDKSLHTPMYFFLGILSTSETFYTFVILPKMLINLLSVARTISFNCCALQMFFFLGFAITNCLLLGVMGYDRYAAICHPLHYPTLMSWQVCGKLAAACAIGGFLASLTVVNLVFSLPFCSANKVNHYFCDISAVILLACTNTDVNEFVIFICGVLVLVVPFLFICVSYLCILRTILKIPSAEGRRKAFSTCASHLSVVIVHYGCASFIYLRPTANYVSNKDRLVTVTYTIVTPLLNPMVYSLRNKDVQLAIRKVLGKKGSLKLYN
The gist of the method:
as §1

For experiment [6], the system named is T6, O10R2.
T6 sequence (whole entry): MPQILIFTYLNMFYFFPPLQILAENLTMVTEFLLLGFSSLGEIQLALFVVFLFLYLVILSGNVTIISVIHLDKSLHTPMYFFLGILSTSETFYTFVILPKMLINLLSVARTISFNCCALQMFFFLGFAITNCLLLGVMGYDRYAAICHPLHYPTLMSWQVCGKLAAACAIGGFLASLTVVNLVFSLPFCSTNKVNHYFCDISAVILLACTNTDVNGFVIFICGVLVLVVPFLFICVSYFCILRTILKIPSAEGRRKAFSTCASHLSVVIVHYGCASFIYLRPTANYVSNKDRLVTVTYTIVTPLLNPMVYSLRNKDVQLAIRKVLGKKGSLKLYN
Summed up: as §1
The source holds these as a separate data set.

For experiment [7], the system named is T7, O10V1.
T7 sequence (whole entry): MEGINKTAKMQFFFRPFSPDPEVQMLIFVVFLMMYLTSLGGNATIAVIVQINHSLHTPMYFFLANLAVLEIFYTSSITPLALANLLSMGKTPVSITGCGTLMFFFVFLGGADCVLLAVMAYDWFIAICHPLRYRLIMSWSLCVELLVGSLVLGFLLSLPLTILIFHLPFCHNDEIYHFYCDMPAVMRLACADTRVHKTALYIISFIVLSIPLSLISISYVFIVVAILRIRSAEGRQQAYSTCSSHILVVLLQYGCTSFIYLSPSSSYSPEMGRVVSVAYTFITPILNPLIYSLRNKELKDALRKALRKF
Summed up: as §1

Experiment [8] concerns T8, O10W1.
T8 sequence (whole entry): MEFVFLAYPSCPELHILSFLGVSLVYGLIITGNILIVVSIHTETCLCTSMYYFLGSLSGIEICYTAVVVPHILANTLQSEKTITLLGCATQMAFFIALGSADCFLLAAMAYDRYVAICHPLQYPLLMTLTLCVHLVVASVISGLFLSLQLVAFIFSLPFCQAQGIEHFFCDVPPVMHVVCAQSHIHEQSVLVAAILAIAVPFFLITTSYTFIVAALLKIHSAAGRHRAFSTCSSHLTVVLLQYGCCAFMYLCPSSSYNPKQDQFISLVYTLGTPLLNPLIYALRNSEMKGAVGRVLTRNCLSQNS
Summed up:
as §1

Experiment [9] deals with T9, O10X1.
T9 sequence (whole entry): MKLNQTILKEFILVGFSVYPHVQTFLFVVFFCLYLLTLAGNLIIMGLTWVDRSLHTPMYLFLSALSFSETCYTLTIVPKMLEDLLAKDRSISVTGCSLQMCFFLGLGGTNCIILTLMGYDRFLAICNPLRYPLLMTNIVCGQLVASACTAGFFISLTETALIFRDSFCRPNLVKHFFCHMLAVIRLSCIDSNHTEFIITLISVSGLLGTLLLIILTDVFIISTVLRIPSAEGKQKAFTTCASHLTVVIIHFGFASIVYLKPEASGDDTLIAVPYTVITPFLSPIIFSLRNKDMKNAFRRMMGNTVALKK
The gist of the method:
as §1

Experiment [10] concerns T10, O11G2.
T10 sequence (whole entry): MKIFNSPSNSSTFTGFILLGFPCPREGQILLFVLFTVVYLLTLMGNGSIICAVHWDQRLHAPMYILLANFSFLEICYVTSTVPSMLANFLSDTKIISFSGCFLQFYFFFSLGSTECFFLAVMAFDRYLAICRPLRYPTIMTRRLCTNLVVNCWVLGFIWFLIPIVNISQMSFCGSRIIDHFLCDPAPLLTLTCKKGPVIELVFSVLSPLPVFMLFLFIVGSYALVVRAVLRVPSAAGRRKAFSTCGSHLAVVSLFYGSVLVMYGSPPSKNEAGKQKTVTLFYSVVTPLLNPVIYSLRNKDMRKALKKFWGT
Summed up:
as §1

Experiment [11] concerns T11, O11H1.
T11 sequence (whole entry): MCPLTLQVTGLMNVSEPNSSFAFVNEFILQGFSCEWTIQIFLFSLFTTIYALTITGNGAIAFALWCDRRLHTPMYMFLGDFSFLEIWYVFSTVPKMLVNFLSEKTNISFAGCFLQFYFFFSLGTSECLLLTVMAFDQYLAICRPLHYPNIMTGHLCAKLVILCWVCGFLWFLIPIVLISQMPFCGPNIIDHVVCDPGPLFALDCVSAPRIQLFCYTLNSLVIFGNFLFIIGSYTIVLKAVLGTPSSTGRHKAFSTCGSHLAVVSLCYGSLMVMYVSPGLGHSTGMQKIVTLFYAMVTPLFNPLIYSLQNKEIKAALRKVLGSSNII
Summed up:
as §1

Experiment [12] has as its system T12, O11H1.
T12 sequence (whole entry): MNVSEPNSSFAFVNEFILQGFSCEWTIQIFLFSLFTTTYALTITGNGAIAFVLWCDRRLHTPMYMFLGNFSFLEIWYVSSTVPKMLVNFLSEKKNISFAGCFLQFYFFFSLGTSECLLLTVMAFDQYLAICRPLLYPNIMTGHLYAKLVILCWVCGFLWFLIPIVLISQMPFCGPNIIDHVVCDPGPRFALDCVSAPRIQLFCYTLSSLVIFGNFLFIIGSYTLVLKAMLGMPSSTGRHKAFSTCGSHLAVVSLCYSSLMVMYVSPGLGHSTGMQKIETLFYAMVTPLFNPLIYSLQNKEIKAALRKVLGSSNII
The gist of the method: as §1
The source holds these as a separate data set.

Experiment [13] relates to T13, O11H2.
T13 sequence (whole entry): T11 sequence (whole entry) with F90S, T105K, H146L, C156Y, M181K, V192I, N218S, I235L, T243M, V289E
The gist of the method: as §1

Experiment [14] has as its system T14, O11H4.
T14 sequence (whole entry): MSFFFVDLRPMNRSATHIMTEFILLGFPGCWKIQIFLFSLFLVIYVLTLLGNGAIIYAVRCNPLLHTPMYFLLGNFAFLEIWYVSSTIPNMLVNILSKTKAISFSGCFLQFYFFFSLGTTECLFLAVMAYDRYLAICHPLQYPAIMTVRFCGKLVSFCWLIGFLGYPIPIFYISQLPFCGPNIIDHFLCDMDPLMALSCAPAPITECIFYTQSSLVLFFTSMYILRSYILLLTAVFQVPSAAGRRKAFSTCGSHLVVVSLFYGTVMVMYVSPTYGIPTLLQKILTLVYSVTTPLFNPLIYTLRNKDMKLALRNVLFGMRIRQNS
Summed up:
as §1

The subject of experiment [15] is T15, O11L1.
T15 sequence (whole entry): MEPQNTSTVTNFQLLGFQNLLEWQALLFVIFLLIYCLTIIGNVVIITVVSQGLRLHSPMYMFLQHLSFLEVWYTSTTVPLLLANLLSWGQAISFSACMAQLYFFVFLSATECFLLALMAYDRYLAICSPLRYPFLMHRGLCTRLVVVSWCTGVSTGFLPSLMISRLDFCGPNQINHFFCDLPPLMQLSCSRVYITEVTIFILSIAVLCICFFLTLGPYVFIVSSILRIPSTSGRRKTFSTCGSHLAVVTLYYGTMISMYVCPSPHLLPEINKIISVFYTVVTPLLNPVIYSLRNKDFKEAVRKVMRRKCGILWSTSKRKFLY
The gist of the method:
as §1

Experiment [16] relates to T16, O12D2.
T16 sequence (whole entry): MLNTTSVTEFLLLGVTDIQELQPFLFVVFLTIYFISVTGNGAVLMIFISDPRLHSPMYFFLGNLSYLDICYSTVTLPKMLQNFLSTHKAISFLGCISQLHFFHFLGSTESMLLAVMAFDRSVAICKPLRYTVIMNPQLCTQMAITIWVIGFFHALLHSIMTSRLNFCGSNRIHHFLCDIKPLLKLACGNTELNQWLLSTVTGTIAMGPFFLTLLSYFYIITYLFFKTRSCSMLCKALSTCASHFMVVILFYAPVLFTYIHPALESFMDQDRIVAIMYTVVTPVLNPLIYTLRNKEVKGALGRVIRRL
The gist of the method:
as §1

Experiment [17] has as its system T17, O13C3.
T17 sequence (whole entry): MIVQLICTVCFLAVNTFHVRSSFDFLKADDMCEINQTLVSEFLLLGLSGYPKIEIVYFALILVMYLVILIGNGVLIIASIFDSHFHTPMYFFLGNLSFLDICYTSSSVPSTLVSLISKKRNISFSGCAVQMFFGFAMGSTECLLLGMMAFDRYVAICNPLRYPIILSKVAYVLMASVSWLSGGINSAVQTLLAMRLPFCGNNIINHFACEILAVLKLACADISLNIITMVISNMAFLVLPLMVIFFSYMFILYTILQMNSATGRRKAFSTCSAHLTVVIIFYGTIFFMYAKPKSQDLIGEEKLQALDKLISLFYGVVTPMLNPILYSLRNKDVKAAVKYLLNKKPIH
Summed up: as §1

From the M2OR odorant receptor database come the findings set out here.

Numbering of substitutions follows the chain as printed. The list shows a part of the results. The calls were merged from several studies; some rest on single wells.

For the compound `CCC1(O)C2(C)CCC(C2)C1(C)C` (stereo unspecified), the “odorant receptor agonist call” value in [1], in [2], in experiment [3], in experiment [4], in [5] and in [6] was “inactive” in each case. Moreover, the “odorant receptor agonist call” value in experiment [7], in [8], in experiment [9], in [10], in [11] and in experiment [13] was “inactive” throughout. For the same compound, the “odorant receptor agonist call” value in experiment [14], in [15], in experiment [16] and in experiment [17] was “inactive” in each case. Besides, the “odorant receptor agonist call” value in experiment [12] is “active”.
As to `CCCCCOC(C)=O`, the “odorant receptor agonist call” value in experiment [1], in experiment [2], in [3], in [4], in [5] and in experiment [6] was “inactive” in each case. The “odorant receptor agonist call” value in [7], in experiment [8], in experiment [9], in [10], in [11] and in [12] was “inactive” each time. Further, the “odorant receptor agonist call” value in [13], in experiment [14], in [16] and in experiment [17] was “inactive” throughout. The “odorant receptor agonist call” value in [15] is “active”.
On to `CC1CCC(C(C)C)C(O)C1` (stereo unspecified), for which the “odorant receptor agonist call” value in experiment [1], in experiment [2], in [3], in [4], in experiment [5] and in [6] was “inactive” throughout. Further, the “odorant receptor agonist call” value in experiment [8], in [10], in experiment [11], in experiment [12], in experiment [13] and in experiment [14] was “inactive” throughout. Further, the “odorant receptor agonist call” value in experiment [15], in experiment [16] and in experiment [17] was “inactive” in each case. The “odorant receptor agonist call” value in experiment [7] and in experiment [9] was “active” in each case.
